Test [1] concerns the target T1, endogenous YOD1 (primary cardiomyocytes after Ang II stimulation) (rat (endogenous in neonatal rat primary cardiomyocytes, by the legend; the text says mouse cardiac tissue)) (UniProt Q32Q05).
T1 sequence: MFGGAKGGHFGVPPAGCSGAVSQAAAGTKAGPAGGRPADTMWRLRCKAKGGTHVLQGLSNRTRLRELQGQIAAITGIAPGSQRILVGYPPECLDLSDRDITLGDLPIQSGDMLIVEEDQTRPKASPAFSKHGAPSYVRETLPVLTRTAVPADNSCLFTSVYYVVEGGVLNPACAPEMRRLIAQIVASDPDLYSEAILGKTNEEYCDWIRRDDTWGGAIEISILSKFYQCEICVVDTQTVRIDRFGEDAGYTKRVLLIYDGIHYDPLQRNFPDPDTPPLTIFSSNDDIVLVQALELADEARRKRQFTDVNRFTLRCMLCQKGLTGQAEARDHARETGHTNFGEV
Briefly: co-IP; endogenous proteins, primary cardiomyocytes following Ang II stimulation (text: Ang II–induced mouse cardiac tissue); precipitated with anti-YOD1 antibody, IgG control; NP-40 lysis buffer, Protein A + G agarose, 4°C.

Protein sequences, listed by entry. Tags and fused reporters are not part of them.
UniProt P42227: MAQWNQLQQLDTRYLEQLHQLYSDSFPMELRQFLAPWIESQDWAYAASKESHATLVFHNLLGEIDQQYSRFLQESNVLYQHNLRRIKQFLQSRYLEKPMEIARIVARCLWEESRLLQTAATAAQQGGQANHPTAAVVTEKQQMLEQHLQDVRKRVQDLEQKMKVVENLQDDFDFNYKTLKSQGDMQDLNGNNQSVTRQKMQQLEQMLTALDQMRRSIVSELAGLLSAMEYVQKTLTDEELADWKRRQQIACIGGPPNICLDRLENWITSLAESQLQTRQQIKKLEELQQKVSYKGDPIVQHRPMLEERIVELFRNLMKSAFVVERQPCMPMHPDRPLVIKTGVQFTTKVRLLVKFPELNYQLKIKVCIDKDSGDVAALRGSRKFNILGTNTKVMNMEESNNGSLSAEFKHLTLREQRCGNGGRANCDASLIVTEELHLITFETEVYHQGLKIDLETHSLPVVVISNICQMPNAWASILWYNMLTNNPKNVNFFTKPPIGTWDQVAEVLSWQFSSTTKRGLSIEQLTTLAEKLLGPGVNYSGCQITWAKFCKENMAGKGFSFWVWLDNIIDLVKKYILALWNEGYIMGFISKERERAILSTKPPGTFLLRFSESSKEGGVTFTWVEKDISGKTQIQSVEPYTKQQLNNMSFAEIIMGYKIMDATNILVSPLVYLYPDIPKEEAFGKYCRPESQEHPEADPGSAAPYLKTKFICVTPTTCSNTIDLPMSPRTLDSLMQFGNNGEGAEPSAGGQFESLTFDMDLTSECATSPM
UniProt P52631: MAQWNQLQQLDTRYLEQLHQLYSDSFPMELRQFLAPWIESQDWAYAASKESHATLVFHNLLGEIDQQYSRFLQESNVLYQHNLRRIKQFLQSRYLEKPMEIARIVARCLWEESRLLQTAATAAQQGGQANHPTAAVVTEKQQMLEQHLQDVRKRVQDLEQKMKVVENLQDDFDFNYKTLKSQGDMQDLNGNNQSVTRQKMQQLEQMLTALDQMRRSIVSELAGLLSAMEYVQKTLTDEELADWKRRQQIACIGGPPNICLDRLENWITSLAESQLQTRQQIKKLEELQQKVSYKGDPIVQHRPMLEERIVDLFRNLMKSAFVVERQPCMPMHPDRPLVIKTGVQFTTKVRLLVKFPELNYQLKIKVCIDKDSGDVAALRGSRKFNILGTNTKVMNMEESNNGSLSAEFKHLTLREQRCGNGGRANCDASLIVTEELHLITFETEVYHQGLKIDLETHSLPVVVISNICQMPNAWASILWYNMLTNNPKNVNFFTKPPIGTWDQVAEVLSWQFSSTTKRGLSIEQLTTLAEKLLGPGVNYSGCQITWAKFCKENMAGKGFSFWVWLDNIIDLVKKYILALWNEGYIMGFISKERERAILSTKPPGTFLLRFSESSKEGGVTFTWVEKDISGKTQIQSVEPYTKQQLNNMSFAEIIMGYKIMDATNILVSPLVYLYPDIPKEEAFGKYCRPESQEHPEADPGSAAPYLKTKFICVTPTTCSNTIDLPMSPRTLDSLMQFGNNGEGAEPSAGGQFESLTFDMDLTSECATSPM

The target in test [2] is His-STAT3, expressed in NIH 3T3 cells (UniProt P42227). As to the kind of experiment: co-IP; NIH 3T3 cells cotransfected with Flag-YOD1 and His-STAT3 plasmids (wild type and domain deletion constructs); precipitated with anti-His or anti-Flag antibody; NP-40 lysis buffer, Protein A + G agarose, 4°C.
The target is the same in test [3]. Briefly: co-IP; fig. S12 (legend not shown): YOD1 active-site mutant plasmids with STAT3; method taken from the only binding assay of the methods.

The values below come from PMC12189954.

Residue numbers refer to the chain shown, from its start. Names and notes keep the numbering of the source. Results are given in words; binding and its absence hold for the method and conditions named. Binding seen in cells or lysates may run through a third protein. Some results given as binding are weak or reduced against the parent protein; the word gives no strength. For some of these results: Where a sequence is shown, tags or fusion partners need not be part of it.

As to “endogenous STAT3 (primary cardiomyocytes after Ang II stimulation) (from UniProt P52631 1-770)”, the binding result in test [1] was “binds”.

B1: Flag-YOD1, expressed in NIH 3T3 cells (enzyme, UniProt Q8CB27 1-343)
chain: MFGGAKGGHFGVPPAGYSGAVPQSEAGTKAGPAGGRPADTMWRVRCKAKGGTHLLQGLSSRTRLRELQGQIAAITGIAPGSQRILVGYPPECLDLSDRDITLGDLPIQSGDMLIVEEDQTRPKASPAFSKYGAPSYVREALPVLTRTAVPADNSCLFTSVYYVVEGGVLNPACAPEMRRLIAQIVASDPVLYSEAILGKTNEDYCDWIRRDDTWGGAIEISILSKFYQCEICVVDTQTVRIDRFGEDAGYTKRVLLIYDGIHYDPLQRNFPDPDTPPLTIFSSNDDIVLVQALELADEARRKRQFTDVNRFTLRCMICQKGLTGQAEARDHARETGHTNFGEV
With B1, the binding entry in test [2] was “binds”.

B2: YOD1-C155A (enzyme, UniProt Q8CB27 1-343)
chain: B1 chain with C155A
On to B2, for which the binding result in test [3] was “binds”.

B3: YOD1-H262A (enzyme, UniProt Q8CB27 1-343)
chain: B1 chain with H262A
As to B3, the binding result in test [3] is listed as “binds”.
